These are yes or no findings as the source states them, for the method shown. Binding calls can cover weak binding; strength is not graded here.
Target: T1, MmOnzin (Onzin from Mus musculus) (Mus musculus) (UniProt Q9JI48)
T1 sequence: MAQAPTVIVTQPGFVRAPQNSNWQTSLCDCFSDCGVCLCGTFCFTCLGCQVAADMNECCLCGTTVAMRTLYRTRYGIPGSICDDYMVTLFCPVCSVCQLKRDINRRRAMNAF
Test: two-hybrid; DupLEX-A yeast system (Origene); LexA DNA-binding domain fusion and B42 activator domain fusion; media and growth as in ref. 19

binding: binds
Substance: C-terminal region of MLH3 from Mus musculus (domain or fragment)
